Results are given in words; binding and its absence hold for the method and conditions named. Some entries that bind do so weakly or less than the wild type. Where a sequence is shown, tags or fusion partners need not be part of it.

Binding data for two molecules are collected here from publication PMC3642348.

In experiment [1] the target is hGAAP TMD5–6 (residues 145–238), C-terminal HA fusion (human) (UniProt Q9HC24). Nature of the experiment: non-reducing SDS-PAGE.
Experiment [2] concerns the target human GAAP (hGAAP), C-terminally HA-tagged (human) (UniProt Q9HC24). Nature of the experiment: SDS-PAGE with DTT.

B1: hGAAP TMD5–6 (residues 145–238), C-terminal HA fusion (domain or fragment, UniProt Q9HC24 145-238)
chain: SKKDFSKFGAGLFALLWILCLSGFLKFFFYSEIMELVLAAAGALLFCGFIIYDTHSLMHKLSPEEYVLAAISLYLDIINLFLHLLRFLEAVNKK
B1: the binding entry in experiment [1] is recorded as “no binding”.

B2: human GAAP (hGAAP), C-terminally HA-tagged (protein, UniProt Q9HC24 1-238)
chain: MADPDPRYPRSSIEDDFNYGSSVASATVHIRMAFLRKVYSILSLQVLLTTVTSTVFLYFESVRTFVHESPALILLFALGSLGLIFALILNRHKYPLNLYLLFGFTLLEALTVAVVVTFYDVYIILQAFILTTTVFFGLTVYTLQSKKDFSKFGAGLFALLWILCLSGFLKFFFYSEIMELVLAAAGALLFCGFIIYDTHSLMHKLSPEEYVLAAISLYLDIINLFLHLLRFLEAVNKK
For the molecule B2, the binding result in experiment [2] is listed as “binds”.
